These results are taken from article PMC7177903.

For assay [1], the target named is 5Myc-6His-hBMAL1-C shorter version (BMAL1 579-626) (human). The assay can be described thus: co-IP; HEK-293T cells co-transfected with 5Myc-6His-BMAL1 constructs and CHR-cpVenus constructs; lysed in IP buffer (10 mM Tris pH 7.5, 150 mM NaCl, 1 mM EDTA, 1% Triton X-100, 0.1% sodium deoxycholate); immunoprecipitated with mouse anti-Myc antibodies, detected with anti-GFP antibodies.

In assay [2] the target is 5Myc-6His-hBMAL1-C (BMAL1 514-594) (human). Described as above.

Results are given in words; binding and its absence hold for the method and conditions named. In cells and extracts the contact can be indirect. For some of these results: Binding calls can cover weak binding; strength is not graded here. Tags and fused reporters may be left off the sequences shown.

B1: CHRH3-cpVenus (CHRONO 111-264) (domain or fragment, UniProt Q8N365 111-264)
chain: CTTEGDLLFAQKCKELQGFIPPLTDLLNGLKMGRFERGLSSFQQSVAMDRIQRIVGVLQKPQMGERYLGTLLQVEGMLKTWFPQIAAQKSSLGGGKHQLTKHFPSHHSDSAASSPASPMEKMDQTQLGHLALKPKQPWHLTQWPAMNLTWIHTT
As for B1, in assay [1], the binding result was “binds weakly”.

B2: CHRH4-cpVenus (CHRONO 111-298) (domain or fragment, UniProt Q8N365 111-298)
chain: CTTEGDLLFAQKCKELQGFIPPLTDLLNGLKMGRFERGLSSFQQSVAMDRIQRIVGVLQKPQMGERYLGTLLQVEGMLKTWFPQIAAQKSSLGGGKHQLTKHFPSHHSDSAASSPASPMEKMDQTQLGHLALKPKQPWHLTQWPAMNLTWIHTTPICNPPLSSPGTISFSHGPLGTGTGIGVILFLQH
As for B2, in assay [1], the binding result is listed as “binds”.

B3: CHR-cpVenus (full-length CHRONO fused to cpVenus on the C-terminus) (protein, UniProt Q8N365 1-385)
chain: MDSPSSVSSYSSYSLSSSFPTSPVNSDFGFPSDSEREDKGAHGPRPDTVGQRGGSRPSPGPIRCRHRSKVSGNQHTPSHPKQRGSASPMAGSGAKRSRDGELETSLNTQGCTTEGDLLFAQKCKELQGFIPPLTDLLNGLKMGRFERGLSSFQQSVAMDRIQRIVGVLQKPQMGERYLGTLLQVEGMLKTWFPQIAAQKSSLGGGKHQLTKHFPSHHSDSAASSPASPMEKMDQTQLGHLALKPKQPWHLTQWPAMNLTWIHTTPICNPPLSSPGTISFSHGPLGTGTGIGVILFLQHGVQPFTHSAPTTPVPPTTASPVIPGEPMKLSGEGPRCYSLPVTLPSDWSYTLSPPSLPTLARKMTIGHREQQRSHPPVAADAHLLNL
B3: the figures for the binding entry in assay [1] and in assay [2] were “binds” and “no binding”, respectively.
